At least one compound was matched to its structure with a doubt left. Some results were stated once for a whole list of compounds, not compound by compound.
Key:
A549 cells [1] = assay: Thymidine incorporation and DNA synthesis in A549 cells; assay type: cell-based, human; details: 72 hours exposure
A549 cells [2] = assay: A549 cell proliferation, MTT assay; assay type: cell-based, human; details: 1 μM, after 72 and 96 hours of treatment
Protocol: A microculture 3,(4,5-dimethylthiazoyl-2-yl) 2,5 (diphenyl-tetrazolium bromide) (MTT) assay, (Marshall, N. J., et al. (1995) A critical assessment of the use of microculture tetrazolium assays to measure cell growth and function. Growth Regul. 5: 69-84.), was used to examine the actions of LXs and other eicosanoids on cell proliferation. A549 cells and fibroblasts from exponential-phase maintenance cultures were counted and dispensed within replicate 96-well culture plates in 100 μl volumes of medium (˜2000 cells/well). […] Dye solution was aspirated, wells were washed once with HBSS and dye taken up by the cells was extracted in 100 μl of isopropyl alcohol:1 N HCl (96:4, v/v) and quantitated at 570 nm using a microplate reader (Molecular Devices, Menlo Park, Calif.). […] Viability was assessed routinely using trypan blue exclusion assay. […] A549 cells grown for 72 hours in the presence of the compounds (5-1000 nM) or vehicle (0.15% EtOH) were lysed with 0.25 N NaOH and the cellular protein content was determined by applying the Bio-Rad (Richmond, Calif.) microassay method using bovine serum albumin as standard. […]

[3] = test system: neutrophil transmigration on epithelial cells; assay: Epithelial cell transmigration assay; assay type: cell-based; details: 10^−7-10^−10M
[4] = test system: neutrophil adhesion to endothelial cells; assay: Neutrophil adhesion assay; assay type: cell-based, human; details: 10^−7-10^−10M
Protocol: Several of the preferred LX analogs (shown structurally as compounds 1 through 8 above) were prepared by total synthesis as described in Example 1. Following preparation and isolation of these compounds via HPLC, compounds were first assessed to determine whether they retain biological activity using the neutrophil adhesion assay and epithelial cell transmigration assays (as described in Nash, S et al., (1987) J. Clin. Invest. 80:1104-1113; Nash, S et al., (1991) J. Clin. Invest. 87: 1474-1477; Parkos, C. A. et al., (1991) J. Clin. Invest. 88:1605-1612; Parkos, C. A. et al. (1992) J. Cell. Biol. 117:757-764; Madara J. L. et al., (1992) J. Tiss. Cult. Meth. 14:209-216).

With `C[C@@H]1C[C@H]2[C@@H]3CCC4=CC(=O)C=C[C@]4(C)[C@@]3(F)[C@@H](O)C[C@]2(C)[C@@]1(O)C(=O)CO` [Dexamethasone] the “concentration giving blockage of DNA synthesis (3H-thymidine incorporation)” value (A549 cells [1]) was no less than 50 nM and the “inhibition of A549 cell proliferation over time” value (A549 cells [2]) was “inhibited A549 cell proliferation”.

For `CCCCC[C@H](O)[C@H](O)/C=C/C=C/C=C\C=C\[C@@H](O)CCCC(=O)O` [LXB4, (5S, 14R, 15S)-trihydroxy-6E, 8Z, 10E, 12E-eicosatetraenoic acid], the “concentration giving blockage of DNA synthesis (3H-thymidine incorporation)” value (A549 cells [1]) was no less than 50 nM.

cyclohexyl-LXA4 [compound 4] was tested, and the “inhibition of neutrophil transmigration on epithelial cells” value [3] was “inhibit” and the “inhibition of neutrophil adhesion to endothelial cells” value [4] was “inhibit”.

`CCCCCC(C)(O)C=CC=CC=CC=CC(O)C(O)CCCC(=O)O` (stereo not shown) [compound 2, 15-methyl-LXA4] was tested, and the “inhibition of neutrophil transmigration on epithelial cells” value [3] was “inhibit” and the “inhibition of neutrophil adhesion to endothelial cells” value [4] was “inhibit”.
